# Data taken from the supplement of paper PMC6411743.
# ± gives the standard deviation of the averaged measurements. The list shows a part of the results, in another mix than the full data.
# Assays:
# Assay in all cases: NP40-soluble protein abundance relative to vehicle (solubility fold change) (ratio); higher = more soluble protein in presence of ATP
# [1] = target: T1, UniProt Q96GS4
# T1 sequence (whole entry): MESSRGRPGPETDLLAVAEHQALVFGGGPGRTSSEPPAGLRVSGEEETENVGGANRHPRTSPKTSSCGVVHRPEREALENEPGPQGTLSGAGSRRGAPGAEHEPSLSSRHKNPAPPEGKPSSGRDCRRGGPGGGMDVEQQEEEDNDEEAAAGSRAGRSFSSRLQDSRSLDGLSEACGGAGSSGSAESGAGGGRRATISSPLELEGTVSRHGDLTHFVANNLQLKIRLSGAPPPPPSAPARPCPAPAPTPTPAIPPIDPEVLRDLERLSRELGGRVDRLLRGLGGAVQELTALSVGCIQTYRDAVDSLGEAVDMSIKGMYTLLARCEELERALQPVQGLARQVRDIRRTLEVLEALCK
# Summary of the method: (§1)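 In three independent experiments, Jurkat crude lysate made by Dounce homogenisation was treated for 10 min at room temperature and then 3 min at 37 °C with eight concentrations ranging from 0.1 to 10 mM. It was then solubilised with 0.8% NP40 plus benzonase for 60 min at 4 °C and ultracentrifuged. The supernatant was TMT-labelled for LC-MS/MS, and each value is the fold change against the detergent-processed vehicle for the same replicate, using vsn-normalised intensities.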
# [2] = target: T2, UniProt Q96J84 and related entries
# T2 sequence (whole entry): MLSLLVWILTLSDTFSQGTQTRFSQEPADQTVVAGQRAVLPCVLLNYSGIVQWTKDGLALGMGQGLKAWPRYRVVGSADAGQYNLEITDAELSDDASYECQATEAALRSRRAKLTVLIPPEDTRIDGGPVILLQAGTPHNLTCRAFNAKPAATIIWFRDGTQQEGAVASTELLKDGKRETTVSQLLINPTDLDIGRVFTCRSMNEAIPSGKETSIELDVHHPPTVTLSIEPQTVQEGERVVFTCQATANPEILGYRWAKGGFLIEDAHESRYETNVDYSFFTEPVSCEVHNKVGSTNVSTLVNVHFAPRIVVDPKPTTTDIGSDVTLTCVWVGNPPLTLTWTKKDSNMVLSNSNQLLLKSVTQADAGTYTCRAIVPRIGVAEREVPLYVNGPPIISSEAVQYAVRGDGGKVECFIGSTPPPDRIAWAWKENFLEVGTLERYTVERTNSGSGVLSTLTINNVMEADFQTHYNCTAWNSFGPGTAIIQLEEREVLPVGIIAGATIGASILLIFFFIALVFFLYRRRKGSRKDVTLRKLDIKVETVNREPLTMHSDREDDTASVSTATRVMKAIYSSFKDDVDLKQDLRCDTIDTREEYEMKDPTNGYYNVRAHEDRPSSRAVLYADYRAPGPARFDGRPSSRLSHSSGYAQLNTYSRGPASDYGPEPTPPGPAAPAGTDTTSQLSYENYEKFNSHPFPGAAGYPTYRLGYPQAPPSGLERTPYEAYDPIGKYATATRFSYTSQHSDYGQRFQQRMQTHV
# Summary of the method: as §1
# [3] = target: T3, UniProt Q96JY6 and related entries
# T3 sequence (whole entry): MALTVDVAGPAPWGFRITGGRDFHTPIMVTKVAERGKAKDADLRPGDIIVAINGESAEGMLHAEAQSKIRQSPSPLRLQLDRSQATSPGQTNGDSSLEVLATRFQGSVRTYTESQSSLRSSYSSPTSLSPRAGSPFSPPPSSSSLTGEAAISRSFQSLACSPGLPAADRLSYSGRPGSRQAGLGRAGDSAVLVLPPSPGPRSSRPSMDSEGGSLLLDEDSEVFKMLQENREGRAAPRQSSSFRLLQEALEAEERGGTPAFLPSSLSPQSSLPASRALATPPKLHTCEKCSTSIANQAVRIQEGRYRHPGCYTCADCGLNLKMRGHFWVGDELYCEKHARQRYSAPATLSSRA
# Summary of the method: as §1
# [4] = target: T4, UniProt Q96KQ4
# T4 sequence (whole entry): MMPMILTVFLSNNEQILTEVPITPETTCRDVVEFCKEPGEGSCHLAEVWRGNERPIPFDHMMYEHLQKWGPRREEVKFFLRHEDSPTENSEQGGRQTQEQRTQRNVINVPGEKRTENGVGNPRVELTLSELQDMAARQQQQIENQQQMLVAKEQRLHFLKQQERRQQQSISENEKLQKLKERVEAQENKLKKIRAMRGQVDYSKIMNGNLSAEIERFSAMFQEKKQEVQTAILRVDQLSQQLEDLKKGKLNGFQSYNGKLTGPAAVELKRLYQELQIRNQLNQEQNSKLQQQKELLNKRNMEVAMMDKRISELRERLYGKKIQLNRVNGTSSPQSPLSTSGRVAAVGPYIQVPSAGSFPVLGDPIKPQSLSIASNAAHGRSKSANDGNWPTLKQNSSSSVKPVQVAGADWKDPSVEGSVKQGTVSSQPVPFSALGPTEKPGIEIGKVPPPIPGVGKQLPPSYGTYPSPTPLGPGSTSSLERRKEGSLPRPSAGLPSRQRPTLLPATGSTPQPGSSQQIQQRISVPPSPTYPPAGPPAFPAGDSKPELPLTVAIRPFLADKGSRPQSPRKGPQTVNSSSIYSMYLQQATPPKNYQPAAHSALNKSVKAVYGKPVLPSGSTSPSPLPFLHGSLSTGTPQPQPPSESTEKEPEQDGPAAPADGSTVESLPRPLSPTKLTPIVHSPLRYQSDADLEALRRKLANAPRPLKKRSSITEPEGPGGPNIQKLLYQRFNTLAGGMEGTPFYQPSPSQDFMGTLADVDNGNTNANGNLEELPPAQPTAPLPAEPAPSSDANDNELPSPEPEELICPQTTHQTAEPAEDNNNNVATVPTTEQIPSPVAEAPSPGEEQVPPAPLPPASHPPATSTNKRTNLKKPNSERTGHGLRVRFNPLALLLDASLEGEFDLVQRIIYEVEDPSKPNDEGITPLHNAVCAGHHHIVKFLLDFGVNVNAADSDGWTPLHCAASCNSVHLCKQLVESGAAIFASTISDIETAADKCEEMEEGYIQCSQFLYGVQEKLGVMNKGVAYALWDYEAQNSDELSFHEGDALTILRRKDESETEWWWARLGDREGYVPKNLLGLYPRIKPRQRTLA
# Summary of the method: as §1
# [5] = target: T5, UniProt Q96QG7 and related entries
# T5 sequence (whole entry): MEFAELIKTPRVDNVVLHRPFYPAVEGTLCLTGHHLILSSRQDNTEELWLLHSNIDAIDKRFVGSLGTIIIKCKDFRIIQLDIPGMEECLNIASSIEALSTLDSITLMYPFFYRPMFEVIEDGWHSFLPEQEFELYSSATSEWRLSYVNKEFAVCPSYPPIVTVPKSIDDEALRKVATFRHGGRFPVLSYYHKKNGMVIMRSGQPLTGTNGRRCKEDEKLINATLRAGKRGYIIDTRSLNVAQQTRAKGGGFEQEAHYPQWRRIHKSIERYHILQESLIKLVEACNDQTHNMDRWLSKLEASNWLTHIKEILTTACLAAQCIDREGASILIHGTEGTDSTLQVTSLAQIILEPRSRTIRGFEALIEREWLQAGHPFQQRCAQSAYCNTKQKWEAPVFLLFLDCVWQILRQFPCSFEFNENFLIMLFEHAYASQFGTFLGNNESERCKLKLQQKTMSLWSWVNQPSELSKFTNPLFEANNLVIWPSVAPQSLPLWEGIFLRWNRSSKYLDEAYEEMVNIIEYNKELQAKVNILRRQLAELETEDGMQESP
# Summary of the method: as §1
structure (smiles),measurement,setting,value
Nc1ncnc2c1ncn2[C@@H]1O[C@H](COP(=O)(O)OP(=O)(O)OP(=O)(O)O)[C@@H](O)[C@H]1O [adenosine triphosphate],NP40-soluble protein abundance,[1]; concentration: 1mM,0.935 ± 0.048
same,NP40-soluble protein abundance,[1]; concentration: 2mM,0.953 ± 0.066
same,NP40-soluble protein abundance,[1]; concentration: 4mM,0.955 ± 0.061
same,NP40-soluble protein abundance,[1]; concentration: 6mM,0.964 ± 0.035
same,NP40-soluble protein abundance,[1]; concentration: 8mM,0.901 ± 0.056
same,NP40-soluble protein abundance,[1]; concentration: 10mM,0.902 ± 0.067
same,NP40-soluble protein abundance,[2]; concentration: 1mM,0.978 ± 0.1
same,NP40-soluble protein abundance,[2]; concentration: 2mM,1.005 ± 0.0079
same,NP40-soluble protein abundance,[2]; concentration: 4mM,1.07 ± 0.15
same,NP40-soluble protein abundance,[2]; concentration: 6mM,1.028 ± 0.0099
same,NP40-soluble protein abundance,[2]; concentration: 8mM,0.997 ± 0.062
same,NP40-soluble protein abundance,[2]; concentration: 10mM,1.05 ± 0.029
same,NP40-soluble protein abundance,[3]; concentration: 1mM,0.903 ± 0.077
same,NP40-soluble protein abundance,[3]; concentration: 2mM,0.922 ± 0.065
same,NP40-soluble protein abundance,[3]; concentration: 4mM,0.94 ± 0.05
same,NP40-soluble protein abundance,[3]; concentration: 6mM,0.95 ± 0.022
same,NP40-soluble protein abundance,[3]; concentration: 8mM,0.915 ± 0.025
same,NP40-soluble protein abundance,[3]; concentration: 10mM,0.915 ± 0.016
same,NP40-soluble protein abundance,[4]; concentration: 1mM,1.03 ± 0.064
same,NP40-soluble protein abundance,[4]; concentration: 2mM,0.99 ± 0.098
same,NP40-soluble protein abundance,[4]; concentration: 4mM,1.12 ± 0.039
same,NP40-soluble protein abundance,[4]; concentration: 6mM,1.04 ± 0.087
same,NP40-soluble protein abundance,[4]; concentration: 8mM,1.07 ± 0.12
same,NP40-soluble protein abundance,[4]; concentration: 10mM,1.05 ± 0.16
same,NP40-soluble protein abundance,[5]; concentration: 1mM,1.08 ± 0.085
same,NP40-soluble protein abundance,[5]; concentration: 2mM,1.05 ± 0.093
same,NP40-soluble protein abundance,[5]; concentration: 4mM,1.04 ± 0.14
same,NP40-soluble protein abundance,[5]; concentration: 6mM,1.03 ± 0.12
same,NP40-soluble protein abundance,[5]; concentration: 8mM,1.07 ± 0.081
same,NP40-soluble protein abundance,[5]; concentration: 10mM,1.02 ± 0.059

# Two successive entries already listed:
structure (smiles),measurement,setting,value
Nc1ncnc2c1ncn2[C@@H]1O[C@H](COP(=O)(O)OP(=O)(O)OP(=O)(O)O)[C@@H](O)[C@H]1O [adenosine triphosphate],NP40-soluble protein abundance,[1]; concentration: 6mM,0.964 ± 0.035
same,NP40-soluble protein abundance,[1]; concentration: 8mM,0.901 ± 0.056
